In patent US11154592B2, “Method of treating Rett Syndrome (RTT) with ghrelin” (KURUME UNIVERSITY, priority 2015, dated 2021):
Entries after “also recorded” stand apart in the source; their conditions may differ. For some assays here: At least one peptide structure holds a part that was inferred or is arguable (an end, a ring closure or a residue). For some assays here: At least one structure is not confirmed: it was looked up by name or label, or the drawing left a doubt.

What was measured:
[1] = test system: RTT model mice; conditions: cited from earlier work
[2] = test system: healthy subjects; conditions: intravenously administered; cited from earlier work
[3] = test system: pancreatic β cells isolated from rats; conditions: cited from earlier work
[4] = test system: patients with RTT; experiment: Breathing pattern (chest/abdominal sensor, SpO2 monitor) before and after intravenous ghrelin; type: in vivo, human
[5] = test system: melatonin; experiment: Saliva melatonin measurements; type: in vivo, human; conditions: FIG. 10
[6] = test system: patients with RTT; experiment: Clinical symptom assessment (VAS, Burke-Fahn-Marsden Dystonia Rating Scale, sleep diary, parents' remarks) after intravenous ghrelin; type: in vivo, human; conditions: for dystonia / sleep disturbances: ghrelin 3 μg/kg/day intravenously
[7] = test system: cortisol awaking response (CAR); experiment: Saliva cortisol: cortisol awaking response (CAR); type: in vivo, human; conditions: FIG. 9
[8] = Blood glucose after ghrelin administration; type: in vivo, human; conditions: 30 to 60 minutes after ghrelin administration; FIG. 4
[9] = test system: growth hormone secretion; experiment: Growth hormone (GH) blood levels after ghrelin administration; type: in vivo, human; conditions: ghrelin 3 μg/kg; FIG. 3
[10] = Surface temperature, deep body temperature, thermography after ghrelin administration; type: in vivo, human; conditions: FIG. 5
[11] = test system: patients with chronic heart failure; conditions: human, in vivo; cited from earlier work

Structure (SMILES): CCCCCCCCc1ccc(CCC(N)(CO)CO)cc1 [fingolimod]
- BDNF levels [1]: increased
- symptoms [1]: ameliorated symptoms

Structure (SMILES): CCCCCCCC(=O)OC[C@H](NC(=O)[C@H](CO)NC(=O)CN)C(=O)N[C@@H](Cc1ccccc1)C(=O)N[C@@H](CC(C)C)C(=O)N[C@@H](CO)C(=O)N1CCC[C@H]1C(=O)N[C@@H](CCC(=O)O)C(=O)N[C@@H](Cc1c[nH]cn1)C(=O)N[C@@H](CCC(N)=O)C(=O)N[C@@H](CCCNC(=N)N)C(=O)N[C@H](C(=O)N[C@@H](CCC(N)=O)C(=O)N[C@@H](CCC(N)=O)C(=O)N[C@@H](CCCNC(=N)N)C(=O)N[C@@H](CCCCN)C(=O)N[C@@H](CCC(=O)O)C(=O)N[C@@H](CO)C(=O)N[C@@H](CCCCN)C(=O)N[C@@H](CCCCN)C(=O)N1CCC[C@H]1C(=O)N1CCC[C@H]1C(=O)N[C@@H](C)C(=O)N[C@@H](CCCCN)C(=O)N[C@@H](CC(C)C)C(=O)N[C@@H](CCC(N)=O)C(=O)N1CCC[C@H]1C(=O)N[C@@H](CCCNC(=N)N)C(=O)O)C(C)C [ghrelin]
- average arterial blood pressure [2]: decreases
- cardiac output [2]: increases cardiac output
- intracellular Ca^2+ levels ([3]; 10^−12 to 10^−11 M, hyperglycemic conditions): increases
- intracellular Ca^2+ levels or insulin secretion ([3]; hypoglycemic conditions): does not affect
- breathing or chest movements ([4]; after ghrelin administration, FIGS. 6 and 7): no significant changes
- breathing abnormalities (apnea, hypopnea: frequency and total time) ([4]; waking state, before vs after intravenous ghrelin): no significant effects
- saliva melatonin [5]: induced peaks of melatonin
- sleep rhythms in sleep diary ([6]; before and after ghrelin administration, FIG. 14): Improvement of sleep rhythms
- time after ghrelin administration at which the symptoms had returned to those before the treatment ([6]; case 1): about 3 weeks
- duration of eating ([6]; case 1, parent's remarks): became shorter
- tremor of the head ([6]; case 1, parent's remarks): decreased
- vasomotor nerve reflex time ([6]; case 1, parent's remarks, after therapy, from 20 minutes before): 10 min
- stool ([6]; case 1, parent's remarks, diarrhea before): formed stool
- time for which alleviation of the symptoms continued ([6]; case 1, consecutive administration for 2 days every 3 weeks): about 1 year
- dystonia ([6]; case 1, 3 consecutive days): markedly alleviated; also recorded: ameliorated
- sleep disturbances ([6]; case 1, 3 consecutive days): markedly alleviated
- need for oral melatonin co-medication ([6]; case 1, melatonin taken in a large amount for a long time): could be discontinued
- hypertonia of the cheeks and around the mouth, shoulder and abdomen ([6]; case 4): ameliorated
- number of days when a hypnotic agent was also required ([6]; case 4): decreased by half
- time for which alleviation of symptoms continued ([6]; case 4, consecutive administration for 2 days every 3 weeks): about 4 months
- dystonia ([6]; case 4): markedly alleviated; also recorded: ameliorated
- sleep disturbances ([6]; case 4): markedly alleviated; also recorded: improved
- cortisol awaking response (CAR) deficits [7]: appeared to be alleviated
- blood glucose levels [8]: increased slightly
- time of GH peak of secretion after ghrelin administration [9]: 30 min
- surface temperature or deep body temperature [10]: did not affect
- cardiac index and hemodynamics [11]: increased cardiac index and improved hemodynamics
